From patent publication US20050181476A1 come the findings set out here.

The chains behind the UniProt entries cited, without tags or fusion partners. Where a name states a change or a piece, a line headed by the entry shows the natural chain unless it says otherwise.
UniProt P51617: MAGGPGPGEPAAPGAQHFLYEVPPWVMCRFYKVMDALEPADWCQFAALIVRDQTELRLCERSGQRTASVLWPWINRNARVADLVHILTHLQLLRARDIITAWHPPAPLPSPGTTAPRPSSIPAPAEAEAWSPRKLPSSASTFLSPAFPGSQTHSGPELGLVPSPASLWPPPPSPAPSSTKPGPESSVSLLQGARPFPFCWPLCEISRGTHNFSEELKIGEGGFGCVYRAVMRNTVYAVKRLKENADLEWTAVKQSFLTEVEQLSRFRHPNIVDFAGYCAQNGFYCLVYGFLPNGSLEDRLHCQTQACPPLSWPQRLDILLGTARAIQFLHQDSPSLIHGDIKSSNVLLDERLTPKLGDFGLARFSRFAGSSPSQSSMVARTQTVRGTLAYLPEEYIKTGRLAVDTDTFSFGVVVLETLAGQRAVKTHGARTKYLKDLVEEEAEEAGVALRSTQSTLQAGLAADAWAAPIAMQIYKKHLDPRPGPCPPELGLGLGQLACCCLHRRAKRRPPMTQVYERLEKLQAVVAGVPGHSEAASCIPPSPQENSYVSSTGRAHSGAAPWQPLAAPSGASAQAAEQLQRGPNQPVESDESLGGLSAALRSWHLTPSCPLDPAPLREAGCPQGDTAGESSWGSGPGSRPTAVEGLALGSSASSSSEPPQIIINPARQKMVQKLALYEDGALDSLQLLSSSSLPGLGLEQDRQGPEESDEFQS
UniProt P22366: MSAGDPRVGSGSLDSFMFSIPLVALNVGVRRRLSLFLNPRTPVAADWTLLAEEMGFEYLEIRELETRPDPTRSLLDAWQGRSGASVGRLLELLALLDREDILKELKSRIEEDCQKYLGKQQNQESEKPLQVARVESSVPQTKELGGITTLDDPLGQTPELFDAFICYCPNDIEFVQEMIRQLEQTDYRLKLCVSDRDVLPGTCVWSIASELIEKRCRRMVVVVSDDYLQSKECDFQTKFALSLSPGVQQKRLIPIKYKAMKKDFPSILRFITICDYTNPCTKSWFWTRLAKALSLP

In the experiment the target is IRAK-1KD (IRAK-1D340N) (UniProt P51617). The experiment in a line: co-immunoprecipitation, HEK293T.

These are yes or no findings as the source states them, for the method shown. Binding seen in cells or lysates may run through a third protein. Some entries that bind do so weakly or less than the wild type.

On to E-MyD88S (from UniProt P22366 1-296), for which the binding result was “binds”.
